Screen size: about 340,000 compounds; about 4,500 (1.3%) were called active. Inconclusive means that the source gave no clear call. Such entries were picked first, then a sample of the others. Calls come from the whole dose curve; as a rule, active = well fitted inhibition curve with a large enough effect; inconclusive = small, poorly fitted or top-dose-only effect, or another doubt; inactive = no such curve, though single readings can be large or run the other way. Potencies beside an inconclusive call are fits to weak or partial responses and may not hold up.
What follows are compounds tested against DNA polymerase beta (Homo sapiens) (UniProt P06746) (assay: qHTS Assay for Inhibitors of DNA Polymerase Beta). Details: Pol beta primer extension/strand displacement, fluorescence kinetic; activity change, negative = inhibition: at 114 µM (top of the series).
In short: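 Human Pol beta at 10 nM; strand-displacement substrate 50 nM final. Compound exposure 15 min at room temperature before start, reaction 10 min at room temperature.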
COC(=O)c1ccc(NC(=S)Nc2ccccc2)cc1 was tested, and the Potency was inconclusive: 100 µM [inhibitor, single point].
CSc1nc(C)c2c(n1)N(c1ccc(F)cc1)CC2 was tested, and the Potency was “inactive”.
In the case of CN(C)/C=C/C(=O)c1ccc(S(=O)c2ccccc2)cc1 (stereo not drawn), the Potency is reported as inconclusive: 3.98 µM [inhibitor, single point].
With C=C(C)Cn1c(Sc2nnc(C)s2)nc2c1c(=O)[nH]c(=O)n2C the Potency was inconclusive: 89.1 µM [inhibitor, single point].
In the case of CCCc1cc2c(c(NC(C)=O)n1)c(=O)oc1ccccc12, the Potency is reported as inconclusive: 39.8 µM [inhibitor, single point].
For N#C/C(=C(/O)Cc1cccc2ccccc12)c1nc2ccccc2s1, the Potency was inconclusive: 0.501 µM [inhibitor, full curve, poor fit].
In the case of Cc1ccc(C)c(Nc2nn3c(=O)c4ccc(C(=O)N(C)Cc5ccccc5)cc4nc3s2)c1, the Potency is reported as inconclusive: 28.2 µM [inhibitor, partial curve, poor fit].
O=C1/C(=C/c2ccco2)N=C(N2CCCCC2)N1c1ccccc1 was tested, and the Potency was inconclusive: 17.8 µM [inhibitor, full curve].
For CCOC(=O)c1c(S(=O)(=O)N2CCN(c3ccc(F)cc3)CC2)c(C)n(C)c1C, the activity change, negative = inhibition was inconclusive: -31.3% [inhibitor].
COc1ccc(NC(=O)Nc2ccc(CC(=O)O)cc2)cc1 was tested, and the Potency was inconclusive: 70.8 µM [inhibitor, partial curve, poor fit].
Cc1nn(Cc2ccccc2Cl)c2sc(C(=O)Nc3nccs3)cc12 was tested, and the Potency was inconclusive: 39.8 µM [inhibitor, single point].
With Cc1ccc(C(=O)N/N=C2\CC3CC=CC23)c(C)c1 (stereo not drawn) the Potency was inconclusive: 39.8 µM [inhibitor, single point].
O=C(NCC1CCN(c2ccc(S(=O)(=O)N3CCOCC3)cc2)CC1)Nc1ccccc1F was tested, and the Potency was inconclusive: 39.8 µM [inhibitor, single point].
For O=C1CCCc2ccccc2N1Cc1c(Cl)cccc1Cl, the Potency was inconclusive: 79.4 µM [inhibitor, single point].
For Cc1ccc(CN2CCN(CC(=O)N/N=C/c3ccccc3F)CC2)cc1, the Potency was inconclusive: 100 µM [inhibitor, single point].
With Cc1cccc(-n2ncc3c(NCc4cccnc4)ncnc32)c1 the Potency was inconclusive: 22.4 µM [inhibitor, partial curve, poor fit].
With Cc1ccnc(NS(=O)(=O)c2ccc(NC(=O)c3cc(-c4ccccc4)nc4ccccc34)cc2)n1 the Potency was “inactive”.
In the case of CC(C)CNC(=O)c1cccc(NC(=O)Cc2ccc(Br)cc2)c1, the Potency is reported as inconclusive: 89.1 µM [inhibitor, single point].

— PubChem BioAssay AID485314 (National Center for Advancing Translational Sciences (NCATS), 2010)
% is set by controls: 0 for no effect and ±100 for the full control effect; potency is the fitted concentration of half-maximal effect.
